{"source": "PubChem BioAssay AID248", "about": "(DTP/NCI, 2004)", "tested_on": "L1210 leukemia ip in BDF1 mice, survival T/C", "experiment": "NCI In Vivo Anticancer Drug Screen. Data for tumor model L1210 Leukemia (intraperitoneal) in B6D2F1 (BDF1) mice", "conditions": "T/C endpoint: mean survival time, higher T/C = longer survival", "key": {"[1]": {"conditions": "dose: 400.0 mg/kg/injection, schedule: Q04DX002 (ip), vehicle: Klucel (hydroxypropylcellulose) (HPC)"}, "[2]": {"conditions": "dose: 200.0 mg/kg/injection, schedule: Q01DX001 (ip), vehicle: saline"}, "[3]": {"conditions": "dose: 400.0 mg/kg/injection, schedule: Q01DX001 (ip), vehicle: saline"}, "[4]": {"conditions": "dose: 75.0 mg/kg/injection, schedule: Q01DX001 (ip), vehicle: other"}}, "note": "The list does not hold the whole screen: it gathers tests that were run many times, whatever their T/C, doses with no T/C, and many T/C values between a quarter and a half above the control. Other doses and runs of a compound stand elsewhere. T/C gives the treated animals as a percentage of the vehicle group. Some doses have a count of surviving animals in place of a T/C: the source files T/C as zero there, which appears to mark a toxic dose or a test without result, not a measured value. Some doses without a T/C left all or most animals alive at the check, yet need not have been tolerated: survival well below the control is almost never listed, so the zero probably covers shortened survival too. Survivors were counted at the toxicity check, usually on the fifth day, unless a day is given; later deaths do not show. Schedule codes are those of the source, taken here to give the interval after Q, in days (D) or hours (H), and the number of doses after X. Where survival is the endpoint, the PubChem record calls one and a half times the control and up active, and a quarter to a half above the control has no call in these data; cut-offs in other NCI protocols can differ. Some doses were run more than once; their values stand side by side, smallest first. Some schedule codes hold Z or #, which are not explained here.", "data": [{"molecule": "O=Cc1c(Cl)n(C(=O)c2ccccc2Cl)c2ccccc12", "values": [{"measurement": "survivor count", "setting": "[1]", "value": "3 of 3"}]}, {"molecule": "C=C(C)C(=O)O[C@H]1CC2=C[C@@H](C[C@@]3(C)O[C@@H]3[C@H]3OC(=O)C(=C)[C@@H]31)OC2=O", "values": [{"measurement": "T/C", "setting": "dose: 2.5 mg/kg/injection, schedule: Q01DX Z (ip), vehicle: saline", "value": "128 % of control"}]}, {"molecule": "Nc1ncc(C=O)c(N)n1", "values": [{"measurement": "survivor count", "setting": "dose: 25.0 mg/kg/injection, schedule: Q01DX009 (ip), vehicle: Klucel (hydroxypropylcellulose) (HPC)", "value": "2 of 3"}]}, {"molecule": "COc1ccc(C2(OC)Oc3cc(OC)ccc3C(=O)C2(O)OC)cc1", "note": "(centres undefined)", "values": [{"measurement": "survivor count", "setting": "[2]", "value": "0 of 4"}, {"measurement": "survivor count", "setting": "[3]", "value": "0 of 4"}]}, {"molecule": "COc1cccc2c1C(=O)c1c(O)c3c(c(O)c1C2=O)C[C@@](O)(C(=O)COC(C)=O)C[C@@H]3OC1CC(N)C(O)C(C)O1", "note": "(some centres undefined)", "values": [{"measurement": "T/C", "setting": "dose: 1.0 mg/kg/injection, schedule: Q04DX003 (ip), vehicle: saline", "value": "132 % of control"}, {"measurement": "T/C", "setting": "dose: 1.1 mg/kg/injection, schedule: Q04DX003 (ip), vehicle: saline", "value": "130 and 138 % of control"}, {"measurement": "T/C", "setting": "dose: 1.5 mg/kg/injection, schedule: Q04DX003 (ip), vehicle: saline", "value": "134 % of control"}, {"measurement": "T/C", "setting": "dose: 1.6 mg/kg/injection, schedule: Q04DX003 (ip), vehicle: saline", "value": "130 % of control"}, {"measurement": "T/C", "setting": "dose: 2.3 mg/kg/injection, schedule: Q04DX003 (ip), vehicle: saline", "value": "142 % of control"}]}, {"molecule": "CCOC(=O)c1cccc2nc3n(c12)CCC3", "values": [{"measurement": "survivor count", "setting": "dose: 400.0 mg/kg/injection, schedule: Q01DX001 (ip), vehicle: saline with Tween-80", "value": "2 of 6"}]}, {"molecule": "Cc1cccc(NC(=O)/C=C/c2ccccc2)n1", "values": [{"measurement": "survivor count", "setting": "dose: 150.0 mg/kg/injection, schedule: Q01DX009 (ip), vehicle: Klucel (hydroxypropylcellulose) (HPC)", "value": "1 of 6"}, {"measurement": "survivor count", "setting": "dose: 200.0 mg/kg/injection, schedule: Q04DX002 (ip), vehicle: Klucel (hydroxypropylcellulose) (HPC)", "value": "1 of 3"}, {"measurement": "survivor count", "setting": "dose: 225.0 mg/kg/injection, schedule: Q01DX009 (ip), vehicle: Klucel (hydroxypropylcellulose) (HPC)", "value": "0 of 6"}, {"measurement": "survivor count", "setting": "dose: 335.0 mg/kg/injection, schedule: Q01DX009 (ip), vehicle: Klucel (hydroxypropylcellulose) (HPC)", "value": "0 of 6"}, {"measurement": "survivor count", "setting": "[1]", "value": "1 of 3"}]}, {"molecule": "C=CC[Si](CC=C)(CC=C)OCC", "values": [{"measurement": "survivor count", "setting": "[4]", "value": "6 of 6"}]}, {"molecule": "COc1ccc(/C(=N/Nc2ccccc2)C(C)C(O)(C(F)(F)F)C(F)(F)F)cc1", "note": "(centres undefined)", "values": [{"measurement": "survivor count", "setting": "dose: 400.0 mg/kg/injection, schedule: Q04DX003 (ip), vehicle: Klucel (hydroxypropylcellulose) (HPC)", "value": "6 of 6"}]}, {"molecule": "O=NN(CCCl)C(=O)N[C@@H]1CCC[C@@H](O)C1", "values": [{"measurement": "T/C", "setting": "dose: 8.0 mg/kg/injection, schedule: Q01DX001 (ip), vehicle: saline with Tween-80", "value": "125 % of control"}, {"measurement": "T/C", "setting": "dose: 67.0 mg/kg/injection, schedule: Q01DX001 (ip), vehicle: saline with Tween-80", "value": "146 % of control"}, {"measurement": "survivor count", "setting": "dose: 100.0 mg/kg/injection, schedule: Q01DX001 (ip), vehicle: saline with Tween-80", "value": "10 of 10"}, {"measurement": "survivor count", "setting": "dose: 150.0 mg/kg/injection, schedule: Q01DX001 (ip), vehicle: saline with Tween-80", "value": "9 of 10"}]}, {"molecule": "Cc1c2ccccc2c(CSCC(N)C(=O)O)c2ccc3ccccc3c12", "note": "(centres undefined)", "values": [{"measurement": "survivor count", "setting": "dose: 200.0 mg/kg/injection, schedule: Q01DX009 (ip), vehicle: saline with Tween-80", "value": "6 of 6"}]}, {"molecule": "C/C(=N\\N=C(/C)c1cccc(N)c1)c1cccc(N)c1", "values": [{"measurement": "survivor count", "setting": "dose: 100.0 mg/kg/injection, schedule: Q01DX001 (ip), vehicle: saline", "value": "6 of 6"}]}, {"molecule": "CCCCCCCCCCCCOCCCN", "values": [{"measurement": "survivor count", "setting": "dose: 50.0 mg/kg/injection, schedule: Q01DX009 (ip), vehicle: saline with Tween-80", "value": "5 of 6"}, {"measurement": "survivor count", "setting": "dose: 100.0 mg/kg/injection, schedule: Q04DX003 (ip), vehicle: saline with Tween-80", "value": "1 of 6"}, {"measurement": "survivor count", "setting": "dose: 200.0 mg/kg/injection, schedule: Q04DX003 (ip), vehicle: saline with Tween-80", "value": "0 of 6"}, {"measurement": "survivor count", "setting": "dose: 400.0 mg/kg/injection, schedule: Q04DX003 (ip), vehicle: saline with Tween-80", "value": "0 of 6"}]}, {"molecule": "O=[N+]([O-])c1ccc2c(ccc3sc4ccccc4[n+]32)c1", "values": [{"measurement": "survivor count", "setting": "[4]", "value": "3 of 6"}, {"measurement": "survivor count", "setting": "dose: 150.0 mg/kg/injection, schedule: Q01DX001 (ip), vehicle: other", "value": "0 of 6"}, {"measurement": "survivor count", "setting": "dose: 300.0 mg/kg/injection, schedule: Q01DX001 (ip), vehicle: other", "value": "0 of 6"}]}, {"molecule": "CCCCCCCC(O)CCC", "note": "(centres undefined)", "values": [{"measurement": "survivor count", "setting": "dose: 400.0 mg/kg/injection, schedule: Q01DX009 (ip), vehicle: Klucel (hydroxypropylcellulose) (HPC)", "value": "4 of 6"}]}, {"molecule": "NC(NCCN1CC1)(C(F)(F)F)C(F)(F)F", "values": [{"measurement": "survivor count", "setting": "dose: 80.0 mg/kg/injection, schedule: Q01DX001 (ip), vehicle: Klucel (hydroxypropylcellulose) (HPC)", "value": "1 of 6"}, {"measurement": "survivor count", "setting": "dose: 100.0 mg/kg/injection, schedule: Q01DX001 (ip), vehicle: Klucel (hydroxypropylcellulose) (HPC)", "value": "1 of 6"}, {"measurement": "survivor count", "setting": "dose: 200.0 mg/kg/injection, schedule: Q01DX001 (ip), vehicle: Klucel (hydroxypropylcellulose) (HPC)", "value": "1 of 6"}, {"measurement": "survivor count", "setting": "dose: 400.0 mg/kg/injection, schedule: Q01DX001 (ip), vehicle: Klucel (hydroxypropylcellulose) (HPC)", "value": "0 of 6"}]}, {"molecule": "Nc1ccc(S(=O)(=O)Nc2cnc3ccccc3n2)cc1", "values": [{"measurement": "survivor count", "setting": "dose: 400.0 mg/kg/injection, schedule: Q04DX002 (ip), vehicle: saline", "value": "3 of 3"}]}, {"molecule": "C[N+]1(C)Cc2ccccc2-c2ccccc2C1", "values": [{"measurement": "survivor count", "setting": "dose: 50.0 mg/kg/injection, schedule: Q01DX009 (ip), vehicle: saline", "value": "5 of 6"}, {"measurement": "survivor count", "setting": "dose: 100.0 mg/kg/injection, schedule: Q04DX003 (ip), vehicle: saline", "value": "0 of 6"}, {"measurement": "survivor count", "setting": "dose: 200.0 mg/kg/injection, schedule: Q04DX003 (ip), vehicle: saline", "value": "0 of 6"}, {"measurement": "survivor count", "setting": "dose: 400.0 mg/kg/injection, schedule: Q04DX003 (ip), vehicle: saline", "value": "0 of 6"}]}, {"molecule": "Cc1ccc(NC(=S)NC(Cc2ccccc2)c2ccccc2)cc1", "note": "(centres undefined)", "values": [{"measurement": "survivor count", "setting": "dose: 100.0 mg/kg/injection, schedule: Q04DX003 (ip), vehicle: Klucel (hydroxypropylcellulose) (HPC)", "value": "6 of 6"}]}, {"molecule": "C=CCN(C(=O)C=C)C1CCCCC1", "values": [{"measurement": "survivor count", "setting": "[2]", "value": "2 of 4"}, {"measurement": "survivor count", "setting": "[3]", "value": "1 of 4"}]}]}
